Here are results for 54 compounds from PubChem BioAssay AID1487 (National Center for Advancing Translational Sciences (NCATS), 2009).

By AC50 is commonly meant the concentration at which the activity in the assay is half-maximal.

This is one part of the list. These are further read-outs of the screen, such as a control signal, another cell line or another target. No call is given for them. Most of these compounds were active or inconclusive in the main read-out, so they are no random draw. Words in brackets tell the shape of the fitted curve; partial curves, single points and poor fits give uncertain potencies.

A short description of the assay: qHTS Assay for Modulators of Lamin A Splicing. To be noted: HeLa LMNA splicing GFP/RFP minigene ratio, 48 h. An outline of the steps: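 S3 HeLa stable clones carrying a lamin A-EGFP splicing minigene plus DsRed2 were seeded at 600 cells/well in Opti-MEM with 2% FBS, pin-dosed and incubated 48 h at 37°C. Acumen cytometry (488 nm) gave the GFP/RFP total-intensity ratio.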
For orientation: qHTS replaces the single test concentration by a dilution series.

[1] abbreviates: measured here: GFP splicing reporter channel.
The mark [2] stands for this setting: measured here: RFP viability control channel.

As for `CN1C2CCC1/C(=C\c1ccccc1)C(=O)/C2=C\c1ccccc1`, the AC50 under setting [1] is 22.4 µM [falling, single point] and the AC50 under setting [2] is 35.5 µM [falling, single point].

For the compound `CC(=O)c1ccc(OCCn2cnc3ccccc32)cc1`, the AC50 under setting [1] is 2.51 µM [rising, single point].

In the case of `COc1ccc(CCNc2ncnc3c2cnn3-c2cc(Cl)ccc2C)cc1`, the AC50 under setting [2] is 35.5 µM [falling, partial curve, poor fit].

Take `Cc1ccccc1NC(=O)CCCSc1nc2ccccc2s1`: the AC50 is 11.2 µM [rising, single point] under setting [1] and 17.8 µM [rising, single point] under setting [2]. As for `Cc1ccc(NC(=O)c2cc(S(=O)(=O)NCCc3ccc(Cl)cc3)ccc2F)cc1`, the concentration at half-maximal activity (AC50) by setting is: under setting [1], 35.5 µM [falling, single point]; under setting [2], 35.5 µM [falling, single point]. Regarding `CCN(Cc1ccccc1)S(=O)(=O)c1ccc(C(=O)Nc2nnc(-c3ccccc3OC)o2)cc1`, the AC50 under setting [2] is 3.98 µM [rising, single point]. Consider `S=C(Nc1ccccc1Cl)N1CCCCC1`, for which the AC50 under setting [2] was 0.141 µM [rising, full curve, poor fit]. Take `C/C=C/c1ccc(OCCCCOc2ccccc2C(C)=O)c(OC)c1`: the concentration at half-maximal activity (AC50) reads like this: under setting [1], 3.98 µM [rising, partial curve]; under setting [2], 17.8 µM [rising, partial curve]. In the case of `CC(C)(C)CNc1cc(N2CCOCC2)ccc1[N+](=O)[O-]`, the AC50 under setting [1] was 0.631 µM [rising, full curve, poor fit]. As for `Cc1cccc(NC(=O)c2ccc(C3SCC(=O)N3CCc3ccccc3)cc2)c1` (centres undefined), the AC50 under setting [2] was 12.6 µM [rising, partial curve].

Consider `C=CCn1c(Sc2ccccc2)nc2c1c(=O)[nH]c(=O)n2C`, for which the half-maximal activity concentration (AC50) runs as follows: under setting [1], 5.62 µM [falling, single point]; under setting [2], 4.47 µM [falling, full curve, poor fit]. For `COc1ccc(NC(C)C(=O)Nc2ccc(C(C)(C)C)cc2)cc1Cl` (centres undefined), the half-maximal activity concentration (AC50) under setting [2] is 11.2 µM [rising, single point]. As for `CCCCNC(=S)Nc1ccccc1Cc1ccccc1`, the concentration at half-maximal activity (AC50) is 35.5 µM [rising, partial curve, poor fit] under setting [1] and 11.2 µM [rising, partial curve] under setting [2]. As to `CC(=O)Nc1ccc(NC(=O)C(C)c2cccc(C(=O)c3ccccc3)c2)cc1` (centres undefined), the concentration at half-maximal activity (AC50) under setting [1] was 12.6 µM [rising, single point]. Regarding `CCc1nnc(NC(=O)C2CCCN(c3nc4ccccc4s3)C2)s1` (centres undefined), the AC50 under setting [2] is 20 µM [rising, single point]. For `CCC(C)c1ccc(NC(=O)C2CCN(c3ncccn3)CC2)cc1` (centres undefined), the half-maximal activity concentration (AC50) reads like this: under setting [1], 12.6 µM [rising, single point]; under setting [2], 17.8 µM [rising, single point]. Take `COCC(=O)n1nc(-c2ccccc2)nc1NCc1ccc(F)cc1`: the concentration at half-maximal activity (AC50) under setting [2] was 11.2 µM [rising, partial curve, poor fit]. As to `Cc1nn(CC(=O)OCCOc2ccc(Br)cc2)c(C)c1[N+](=O)[O-]`, the AC50 under setting [1] was 0.01 µM [rising, full curve, poor fit]. Take `Cc1ccc(CN2CCN(/N=C/c3sccc3C)CC2)c(C)c1`: the half-maximal activity concentration (AC50) was 31.6 µM [rising, single point] under setting [1] and 31.6 µM [rising, single point] under setting [2]. For the compound `Cc1onc(-c2ccccc2Cl)c1C(=O)Nc1nnc(-c2cccc([N+](=O)[O-])c2)s1`, the AC50 under setting [2] is 12.6 µM [rising, partial curve]. Take `CCn1c(SCc2nc(-c3ccc(OC)c(OC)c3)no2)nnc1-c1cccs1`: the concentration at half-maximal activity (AC50) under setting [2] was 35.5 µM [rising, single point]. On to `COc1ccc(Cl)cc1NC(=S)NCCC(c1ccccc1)c1ccccc1`, for which, under setting [2], the half-maximal activity concentration (AC50) was 35.5 µM [rising, single point]. For the compound `CCOC(=O)c1c(NC(=O)c2ccc(S(=O)(=O)N(C)C3CCCCC3)cc2)sc2c1CCN(C(C)C)C2`, the AC50 under setting [2] is 35.5 µM [falling, single point]. With `Cc1ccc(-c2ccc(SCC(=O)c3ccccc3)nn2)cc1`, under setting [2], the AC50 is 35.5 µM [rising, single point]. With `Cc1ccc(Cl)cc1-n1ncc2c(N3CCN(Cc4ccccc4)CC3)ncnc21`, the AC50 is, setting by setting: under setting [1], 17.8 µM [falling, partial curve]; under setting [2], 35.5 µM [falling, partial curve]. For the compound `COCCNc1ncnc2ccc(-c3cccnc3)cc12`, the AC50 runs as follows: under setting [1], 1.12 µM [falling, partial curve, poor fit]; under setting [2], 1.78 µM [falling, partial curve, poor fit]. In the case of `BrC(/C=N/Nc1nc(N2CCOCC2)nc(N2CCOCC2)n1)=C/c1ccccc1`, the AC50 by setting is: under setting [1], 12.6 µM [falling, single point]; under setting [2], 0.0794 µM [falling, single point]. Take `Cc1ccc(C)c(NC(=S)NC(NC(=O)/C=C/c2ccccc2)C(Cl)(Cl)Cl)c1` (centres undefined): the AC50 runs as follows: under setting [1], 11.2 µM [falling, single point]; under setting [2], 11.2 µM [falling, partial curve]. With `Cc1cccc(C(=O)Nc2ccnc(-c3cccnc3)n2)c1`, the concentration at half-maximal activity (AC50) under setting [1] is 0.00447 µM [falling, full curve, poor fit]. Regarding `CCOc1ccc(C(=O)NC(=S)Nc2ccccc2N2CCCCC2)cc1[N+](=O)[O-]`, the concentration at half-maximal activity (AC50) under setting [2] was 10 µM [rising, partial curve]. With `O=C(COc1cccnc1[N+](=O)[O-])Nc1cccc(S(=O)(=O)N2CCCCC2)c1`, the AC50 under setting [2] is 35.5 µM [rising, single point].

Turning to `N/C(=N\S(=O)(=O)c1ccccc1)c1ccc([N+](=O)[O-])cc1`, the AC50 is, setting by setting: under setting [1], 17.8 µM [rising, partial curve]; under setting [2], 17.8 µM [rising, single point]. `CCOc1ncccc1C(=O)OC(C)C(=O)NC(=O)NC1CCCCC1` (centres undefined): the half-maximal activity concentration (AC50) is 0.02 µM [falling, full curve, poor fit] under setting [1] and 3.98 µM [falling, full curve] under setting [2].

Regarding `CCOC(=O)c1nnn(-c2nonc2-n2cccc2)c1-c1cccc([N+](=O)[O-])c1`, under setting [1], the half-maximal activity concentration (AC50) was 0.0251 µM [rising, full curve, poor fit]. In the case of `Nc1cccc2c1C(=O)N(C(=O)c1cccc(S(=O)(=O)N3CCCCCC3)c1)C2=O`, the concentration at half-maximal activity (AC50) under setting [2] was 35.5 µM [falling, partial curve, poor fit].

With `COc1ccc2nc(N(Cc3cccnc3)C(=O)Cc3ccccc3)sc2c1`, the concentration at half-maximal activity (AC50) reads like this: under setting [1], 31.6 µM [falling, partial curve]; under setting [2], 35.5 µM [falling, partial curve, poor fit]. As for `Nc1[nH]nc2c1NN(c1ccc(Cl)cc1Cl)N2`, the AC50 under setting [2] was 22.4 µM [rising, partial curve, poor fit]. Turning to `Brc1ccc(-c2csc(-c3c[nH]c4ccccc34)n2)cc1`, the half-maximal activity concentration (AC50) under setting [1] was 6.31 µM [rising, partial curve, poor fit]. Take `CCCCS(=O)(=O)N1C2=NC(C(=O)OC)=C(C(=O)OC)[C@@H]3N(Cc4ccccc4)c4ccccc4[C@]23C[C@H]1C(=O)OC`: the AC50 under setting [1] was 0.00316 µM [rising, full curve, poor fit]. For `COc1ccccc1CNC(=O)CN1C(=O)COc2ccc(S(=O)(=O)NC3CCCC3)cc21`, the AC50 under setting [1] is 12.6 µM [falling, partial curve, poor fit]. Turning to `COc1ccccc1N(C)S(=O)(=O)c1ccc(Cl)c(C(=O)OCc2c(C)noc2C)c1`, the half-maximal activity concentration (AC50) is 11.2 µM [falling, partial curve, poor fit] under setting [1] and 3.55 µM [falling, partial curve] under setting [2]. On to `Cc1cn(S(=O)(=O)c2cc(Br)ccc2Br)cn1`, for which the AC50 under setting [2] was 1.78 µM [falling, partial curve, poor fit].

On to `CCOc1ccc(NS(=O)(=O)c2ccc3c(c2)oc(=O)n3C)cc1`, for which, under setting [2], the AC50 is 14.1 µM [rising, single point]. As for `CCOC(=O)c1cnc(SCc2nc(N)nc(Nc3ccc(F)cc3)n2)nc1N`, the AC50 under setting [2] is 11.2 µM [rising, single point].

Turning to `C[C@@]12C(=O)OC(=O)[C@]1(C)[C@H]1CC[C@@H]2O1`, the AC50 is 1 µM [falling, full curve] under setting [1] and 1.12 µM [falling, full curve] under setting [2]. As for `O=C(O)CCC/C=C\C[C@@H]1[C@@H](/C=C/[C@@H](O)COc2cccc(C(F)(F)F)c2)[C@H](O)C[C@@H]1O`, the AC50 under setting [1] was 0.355 µM [rising, partial curve, poor fit].

On to `COc1ccc(S(=O)(=O)N(C)CC(=O)N2CCN(Cc3ccccc3)CC2)cc1C`, for which the AC50 under setting [2] is 10 µM [rising, partial curve]. For `O=C(NCc1ccco1)c1ccc2c(c1)N(Cc1ccc(Cl)cc1)C(=O)c1ccccc1S2`, under setting [1], the AC50 was 5.01 µM [falling, partial curve, poor fit]. Consider `O=C(Nc1ccc(F)cc1)Nc1cc(OCC(F)(F)F)cc(OCC(F)(F)F)c1`, for which the half-maximal activity concentration (AC50) under setting [2] was 6.31 µM [rising, full curve]. Regarding `CCN(CC)S(=O)(=O)c1ccc(NC(=O)c2c(-c3ccccc3)noc2C)cc1`, the AC50 runs as follows: under setting [1], 12.6 µM [rising, partial curve]; under setting [2], 11.2 µM [rising, partial curve].

With `O=C(O)c1cccc(N/N=C/C2=C(Cl)c3cc(Cl)ccc3SC2)c1`, the AC50 is 0.891 µM [rising, full curve, poor fit] under setting [1] and 0.0708 µM [falling, partial curve, poor fit] under setting [2]. In the case of `C=CCc1cc(Cl)ccc1OCCOCCNCCOC`, the half-maximal activity concentration (AC50) under setting [1] is 0.282 µM [rising, full curve, poor fit]. `Fc1ccc(NC(=S)NCCN2CCOCC2)cc1`: the AC50 was 25.1 µM [falling, partial curve] under setting [1] and 35.5 µM [falling, partial curve] under setting [2]. Take `COc1cc(CCN2C(=O)N[C@@H](c3cccc(C(F)(F)F)c3)C(C(C)=O)=C2C)cc(OC)c1OC`: under setting [2], the concentration at half-maximal activity (AC50) is 17.8 µM [rising, single point].
